From patent US8630703B2, “Treatment utilizing hydrophobic weak bases chemotherapeutic agents and illumination” (Technion Research & Development Foundation Limited, priority 2011, dated 2014)
At least one compound was matched to its structure with a doubt left. Some results were stated once for a whole list of compounds, not compound by compound.

Assays:
A549 and A549/K1.5 cells = assay: XTT cytotoxicity, result stated jointly for two cell lines; type: cell-based, Human; details: A549 and A549/K1.5, vs non-illuminated cells
[1] = test system: human umbilical vein endothelial cells (HUVEC); assay: Fluorescence microscopy of endothelial cells; type: cell-based; details: illumination
Protocol: Human umbilical vein endothelial cells (HUVEC) were isolated by perfusion of umbilical veins (Department of Obstetrics and Gynaecology, VU University Medical Center) with trypsin. Cells were routinely cultured in RPMI-1640 medium (Life Technologies, Breda, The Netherlands) supplemented with 10% heat-inactivated human serum, 10% heat-inactivated FCS, 2 mM L-glutamine (Life Technologies, Netherlands), […] streptomycin and 50 U/ml penicillin (ICN Biomedicals) in a 0.2% gelatin coated 75 cm^2 tissue culture flask at 37° C. in an atmosphere with 5% CO2. HUVEC used for experiments were cultured without addition of extra growth factors and used for experiments between passage 2 and 4.
Freshly-isolated human umbilical vein endothelial cells (HUVEC), RF24 immortalized HUVEC cells, and human dermis derived endothelial cells (HMEC) were obtained and grown in vitro as described in the Materials and Methods section hereinabove. The cells were then seeded at 10^4 cells/well in a 24-well tissue culture plate. Twenty four hours after seeding, the cells were incubated for 1 hour with 10 or 1 μM of either C-1375, C-1379 or sunitinib. After this incubation, the cells in the 24-well plates were evaluated by fluorescence microscopy. […]

[2] = test system: chicken chorioallantoic membrane (CAM) vasculature; assay: Chorioallantoic membrane (CAM) model of photodynamic therapy; type: in vivo
Protocol: Fertilized chicken eggs (Animalco AG) were labeled and transferred into a hatching incubator with a relative air humidity of 65% and a temperature of 37° C. The incubator was equipped with an automatic fan (Savimat). On embryonic development day (EDD) 3, a hole of approximately 3 mm in diameter was opened in the eggshell above the air pouch of the egg and covered with Parafilm® wrapping film (Pechiney) to prevent dehydration and possible infections. The eggs were then returned to the incubator in a static position until use. On EDD 11, the hole in the shell was extended to a diameter of approximately 3 cm in order to provide better access to the chorioallantoic membrane (CAM) during experiments.
Eggs were placed under an Eclipse 600 FN epi-fluorescence microscope equipped with a Plan Apo 4/0.2, working distance 20 objective (Nikon). Microscopic observation and illumination of a region of the CAM was performed as described previously [Lim et al., Photochem Photobiol 2010, 86:397-402; Lim et al., J Med Chem 2010, 53:2865-2874; Nowak-Sliwinska et al., Angiogenesis 2010, 13:281-292]. Illumination was provided by a 100 W high pressure Hg-arc lamp. Light doses were adjusted with neutral density filters and measured with a calibrated Field-Master GS power meter (Coherent Inc.). Fluorescence images were acquired with an F-view II 12-bit monochrome Peltier-cooled digital CCD camera driven with analySIS DOCU software (Soft Imaging System GmbH).
For excitation and detection of imidazoacridinones (IAs) or sunitinib, the microscope was equipped with a filter set (Nikon) characterized by excitation wavelengths of 420±20 nm and emission wavelengths of >470 nm,
After the treatment the eggs were numbered, covered and returned to the incubator. Each treatment group included 5 eggs.
Chorioallantoic membranes (CAMs) were intravenously injecting chorioallantoic membranes with 20 μl of a solution of FITC-dextran (20 kDa, 25 mg/ml). Fluorescence angiography was then performed using light from an Hg-arc lamp and light filters (Nikon) which provided excitation wavelengths of 470±20 nm and emission wavelengths of >520 nm for observing the fluorescence. In order to increase the quality of the recorded angiographs, a light absorber, in the form of India ink, was injected (30 μl) into the extra-embryonic cavity. The purpose of this second injection was to decrease the influence of the CAM auto-fluorescence background, which changes rapidly with time due to the embryo's movement. The India ink was filtered shortly before injection, using a sterile cellulose acetate membrane with 0.2 μm pores (Renner GmbH). […]
The illuminated area was 0.02 cm^2, as delimited by an optical diaphragm. The fluorescence of sunitinib was visible in the vasculature of the CAMs prior to PDT.

[3] = Absorption, emission and excitation spectra; type: physicochemical; details: aqueous 0.9% NaCl
Protocol: Stock solutions containing sunitinib or the imidazoacridinones (IAs) C-1375 and C-1379 in 100% dimethyl sulfoxide were diluted with aqueous 0.9% NaCl solution under continuous stirring. Absorption spectra were recorded with a two-beam Cary 500 UV-VIS-NIR spectrophotometer (Varian) in 1 cm long Suprasil® quartz cuvettes (Hellma), at an average scan speed of 600 nm/minute, at 20° C. The steady state emission and excitation spectra were recorded with an LS 50B luminescence spectrometer (Perkin-Elmer).

COc1ccc2c(c1)c(=O)c1c(NCCCN(C)C)ccc3nc(C)n2c31 [C-1375]
enhancement of cytotoxic activity by illumination (A549 and A549/K1.5 cells): 10-32 fold

CCN(CC)CCCNc1ccc2nc(C)n3c4ccc(OC)cc4c(=O)c1c23 [C-1379]
enhancement of cytotoxic activity by illumination (A549 and A549/K1.5 cells): 10-32 fold

CCN(CC)CCNC(=O)c1c(C)[nH]c(/C=C2\C(=O)Nc3ccc(F)cc32)c1C [sunitinib]
photodestruction of lysosomes compared with IAs [1]: slower
vascular effect in illuminated area ([2]; 0.0002 mg/kg intravenous, drug-light interval 1 minute, 34 J/cm^2 (Table 5), 24 hours after treatment): vaso-occlusion within the illuminated area
vascular effect in illuminated area ([2]; 1.2 mg/kg intravenous, 1 minute, 130 J/cm^2, immediately and 24 hours after treatment): complete capillary bed occlusion
vascular effect in illuminated area ([2]; 4 mg/kg topical, 3 hours, 130 J/cm^2, 24 hours after treatment): vaso-occlusion within the illuminated area
vascular effect in illuminated area ([2]; 20 mg/kg intravenous, 3 hours, 130 J/cm^2, 24 hours after treatment): vaso-occlusion within the illuminated area
Peak absorption [3]: 429 nm
Peak emission [3]: 510 nm
Peak excitation [3]: 407 nm
absorbance wavelength range [3]: 340-480 nm
